These are yes or no findings as the source states them, for the method shown. Binding seen in cells or lysates may run through a third protein. A yes stands for co-enrichment or nearness to the bait. Other partners may have been found.
target: NBCn1 C-terminal-GST (GST-tagged C-terminal tail of rat NBCn1-D) (rat) (UniProt Q9R1N3); test: affinity purification with mass spectrometry; NBCn1-C-GST bound to glutathione agarose beads, added to MCF-7 cell lysate (80 mM Tris-HCl pH 7.5, 200 mM NaCl, 1% Triton-X-100), 2 h at 4 °C; GST-only beads as control; LC-MS; an independent experiment in MCF-7 cells expressing p95HER2 yielded similar results; only the target purified

Protein sequences, listed by entry. Tags and fused reporters are not part of them.
UniProt P20339: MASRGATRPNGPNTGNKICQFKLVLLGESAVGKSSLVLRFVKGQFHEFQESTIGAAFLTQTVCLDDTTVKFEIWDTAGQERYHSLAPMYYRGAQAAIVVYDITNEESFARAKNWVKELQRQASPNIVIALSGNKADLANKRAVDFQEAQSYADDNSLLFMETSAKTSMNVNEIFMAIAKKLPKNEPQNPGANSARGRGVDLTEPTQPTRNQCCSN
UniProt P51148: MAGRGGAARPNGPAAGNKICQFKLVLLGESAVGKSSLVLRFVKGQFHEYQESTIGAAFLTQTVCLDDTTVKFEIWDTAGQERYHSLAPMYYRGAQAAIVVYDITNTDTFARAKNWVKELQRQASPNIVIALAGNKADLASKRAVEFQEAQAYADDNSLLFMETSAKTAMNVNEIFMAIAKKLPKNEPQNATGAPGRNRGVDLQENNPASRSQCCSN
UniProt Q86TM6: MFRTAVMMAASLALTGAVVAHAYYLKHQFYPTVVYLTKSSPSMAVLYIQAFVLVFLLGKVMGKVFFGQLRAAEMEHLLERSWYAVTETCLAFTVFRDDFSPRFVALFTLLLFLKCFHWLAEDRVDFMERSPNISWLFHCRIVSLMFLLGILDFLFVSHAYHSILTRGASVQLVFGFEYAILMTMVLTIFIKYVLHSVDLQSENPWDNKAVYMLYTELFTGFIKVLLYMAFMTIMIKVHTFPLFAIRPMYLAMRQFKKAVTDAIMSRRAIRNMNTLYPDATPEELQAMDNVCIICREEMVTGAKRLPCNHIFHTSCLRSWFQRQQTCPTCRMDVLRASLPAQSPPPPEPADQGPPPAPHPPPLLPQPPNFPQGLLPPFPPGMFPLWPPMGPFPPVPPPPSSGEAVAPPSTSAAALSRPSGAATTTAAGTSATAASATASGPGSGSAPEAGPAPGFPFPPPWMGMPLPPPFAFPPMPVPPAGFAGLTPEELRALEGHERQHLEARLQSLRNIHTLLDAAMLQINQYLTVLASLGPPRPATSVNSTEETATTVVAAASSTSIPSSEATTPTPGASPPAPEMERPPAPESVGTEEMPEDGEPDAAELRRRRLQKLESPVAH
UniProt Q5T4S7: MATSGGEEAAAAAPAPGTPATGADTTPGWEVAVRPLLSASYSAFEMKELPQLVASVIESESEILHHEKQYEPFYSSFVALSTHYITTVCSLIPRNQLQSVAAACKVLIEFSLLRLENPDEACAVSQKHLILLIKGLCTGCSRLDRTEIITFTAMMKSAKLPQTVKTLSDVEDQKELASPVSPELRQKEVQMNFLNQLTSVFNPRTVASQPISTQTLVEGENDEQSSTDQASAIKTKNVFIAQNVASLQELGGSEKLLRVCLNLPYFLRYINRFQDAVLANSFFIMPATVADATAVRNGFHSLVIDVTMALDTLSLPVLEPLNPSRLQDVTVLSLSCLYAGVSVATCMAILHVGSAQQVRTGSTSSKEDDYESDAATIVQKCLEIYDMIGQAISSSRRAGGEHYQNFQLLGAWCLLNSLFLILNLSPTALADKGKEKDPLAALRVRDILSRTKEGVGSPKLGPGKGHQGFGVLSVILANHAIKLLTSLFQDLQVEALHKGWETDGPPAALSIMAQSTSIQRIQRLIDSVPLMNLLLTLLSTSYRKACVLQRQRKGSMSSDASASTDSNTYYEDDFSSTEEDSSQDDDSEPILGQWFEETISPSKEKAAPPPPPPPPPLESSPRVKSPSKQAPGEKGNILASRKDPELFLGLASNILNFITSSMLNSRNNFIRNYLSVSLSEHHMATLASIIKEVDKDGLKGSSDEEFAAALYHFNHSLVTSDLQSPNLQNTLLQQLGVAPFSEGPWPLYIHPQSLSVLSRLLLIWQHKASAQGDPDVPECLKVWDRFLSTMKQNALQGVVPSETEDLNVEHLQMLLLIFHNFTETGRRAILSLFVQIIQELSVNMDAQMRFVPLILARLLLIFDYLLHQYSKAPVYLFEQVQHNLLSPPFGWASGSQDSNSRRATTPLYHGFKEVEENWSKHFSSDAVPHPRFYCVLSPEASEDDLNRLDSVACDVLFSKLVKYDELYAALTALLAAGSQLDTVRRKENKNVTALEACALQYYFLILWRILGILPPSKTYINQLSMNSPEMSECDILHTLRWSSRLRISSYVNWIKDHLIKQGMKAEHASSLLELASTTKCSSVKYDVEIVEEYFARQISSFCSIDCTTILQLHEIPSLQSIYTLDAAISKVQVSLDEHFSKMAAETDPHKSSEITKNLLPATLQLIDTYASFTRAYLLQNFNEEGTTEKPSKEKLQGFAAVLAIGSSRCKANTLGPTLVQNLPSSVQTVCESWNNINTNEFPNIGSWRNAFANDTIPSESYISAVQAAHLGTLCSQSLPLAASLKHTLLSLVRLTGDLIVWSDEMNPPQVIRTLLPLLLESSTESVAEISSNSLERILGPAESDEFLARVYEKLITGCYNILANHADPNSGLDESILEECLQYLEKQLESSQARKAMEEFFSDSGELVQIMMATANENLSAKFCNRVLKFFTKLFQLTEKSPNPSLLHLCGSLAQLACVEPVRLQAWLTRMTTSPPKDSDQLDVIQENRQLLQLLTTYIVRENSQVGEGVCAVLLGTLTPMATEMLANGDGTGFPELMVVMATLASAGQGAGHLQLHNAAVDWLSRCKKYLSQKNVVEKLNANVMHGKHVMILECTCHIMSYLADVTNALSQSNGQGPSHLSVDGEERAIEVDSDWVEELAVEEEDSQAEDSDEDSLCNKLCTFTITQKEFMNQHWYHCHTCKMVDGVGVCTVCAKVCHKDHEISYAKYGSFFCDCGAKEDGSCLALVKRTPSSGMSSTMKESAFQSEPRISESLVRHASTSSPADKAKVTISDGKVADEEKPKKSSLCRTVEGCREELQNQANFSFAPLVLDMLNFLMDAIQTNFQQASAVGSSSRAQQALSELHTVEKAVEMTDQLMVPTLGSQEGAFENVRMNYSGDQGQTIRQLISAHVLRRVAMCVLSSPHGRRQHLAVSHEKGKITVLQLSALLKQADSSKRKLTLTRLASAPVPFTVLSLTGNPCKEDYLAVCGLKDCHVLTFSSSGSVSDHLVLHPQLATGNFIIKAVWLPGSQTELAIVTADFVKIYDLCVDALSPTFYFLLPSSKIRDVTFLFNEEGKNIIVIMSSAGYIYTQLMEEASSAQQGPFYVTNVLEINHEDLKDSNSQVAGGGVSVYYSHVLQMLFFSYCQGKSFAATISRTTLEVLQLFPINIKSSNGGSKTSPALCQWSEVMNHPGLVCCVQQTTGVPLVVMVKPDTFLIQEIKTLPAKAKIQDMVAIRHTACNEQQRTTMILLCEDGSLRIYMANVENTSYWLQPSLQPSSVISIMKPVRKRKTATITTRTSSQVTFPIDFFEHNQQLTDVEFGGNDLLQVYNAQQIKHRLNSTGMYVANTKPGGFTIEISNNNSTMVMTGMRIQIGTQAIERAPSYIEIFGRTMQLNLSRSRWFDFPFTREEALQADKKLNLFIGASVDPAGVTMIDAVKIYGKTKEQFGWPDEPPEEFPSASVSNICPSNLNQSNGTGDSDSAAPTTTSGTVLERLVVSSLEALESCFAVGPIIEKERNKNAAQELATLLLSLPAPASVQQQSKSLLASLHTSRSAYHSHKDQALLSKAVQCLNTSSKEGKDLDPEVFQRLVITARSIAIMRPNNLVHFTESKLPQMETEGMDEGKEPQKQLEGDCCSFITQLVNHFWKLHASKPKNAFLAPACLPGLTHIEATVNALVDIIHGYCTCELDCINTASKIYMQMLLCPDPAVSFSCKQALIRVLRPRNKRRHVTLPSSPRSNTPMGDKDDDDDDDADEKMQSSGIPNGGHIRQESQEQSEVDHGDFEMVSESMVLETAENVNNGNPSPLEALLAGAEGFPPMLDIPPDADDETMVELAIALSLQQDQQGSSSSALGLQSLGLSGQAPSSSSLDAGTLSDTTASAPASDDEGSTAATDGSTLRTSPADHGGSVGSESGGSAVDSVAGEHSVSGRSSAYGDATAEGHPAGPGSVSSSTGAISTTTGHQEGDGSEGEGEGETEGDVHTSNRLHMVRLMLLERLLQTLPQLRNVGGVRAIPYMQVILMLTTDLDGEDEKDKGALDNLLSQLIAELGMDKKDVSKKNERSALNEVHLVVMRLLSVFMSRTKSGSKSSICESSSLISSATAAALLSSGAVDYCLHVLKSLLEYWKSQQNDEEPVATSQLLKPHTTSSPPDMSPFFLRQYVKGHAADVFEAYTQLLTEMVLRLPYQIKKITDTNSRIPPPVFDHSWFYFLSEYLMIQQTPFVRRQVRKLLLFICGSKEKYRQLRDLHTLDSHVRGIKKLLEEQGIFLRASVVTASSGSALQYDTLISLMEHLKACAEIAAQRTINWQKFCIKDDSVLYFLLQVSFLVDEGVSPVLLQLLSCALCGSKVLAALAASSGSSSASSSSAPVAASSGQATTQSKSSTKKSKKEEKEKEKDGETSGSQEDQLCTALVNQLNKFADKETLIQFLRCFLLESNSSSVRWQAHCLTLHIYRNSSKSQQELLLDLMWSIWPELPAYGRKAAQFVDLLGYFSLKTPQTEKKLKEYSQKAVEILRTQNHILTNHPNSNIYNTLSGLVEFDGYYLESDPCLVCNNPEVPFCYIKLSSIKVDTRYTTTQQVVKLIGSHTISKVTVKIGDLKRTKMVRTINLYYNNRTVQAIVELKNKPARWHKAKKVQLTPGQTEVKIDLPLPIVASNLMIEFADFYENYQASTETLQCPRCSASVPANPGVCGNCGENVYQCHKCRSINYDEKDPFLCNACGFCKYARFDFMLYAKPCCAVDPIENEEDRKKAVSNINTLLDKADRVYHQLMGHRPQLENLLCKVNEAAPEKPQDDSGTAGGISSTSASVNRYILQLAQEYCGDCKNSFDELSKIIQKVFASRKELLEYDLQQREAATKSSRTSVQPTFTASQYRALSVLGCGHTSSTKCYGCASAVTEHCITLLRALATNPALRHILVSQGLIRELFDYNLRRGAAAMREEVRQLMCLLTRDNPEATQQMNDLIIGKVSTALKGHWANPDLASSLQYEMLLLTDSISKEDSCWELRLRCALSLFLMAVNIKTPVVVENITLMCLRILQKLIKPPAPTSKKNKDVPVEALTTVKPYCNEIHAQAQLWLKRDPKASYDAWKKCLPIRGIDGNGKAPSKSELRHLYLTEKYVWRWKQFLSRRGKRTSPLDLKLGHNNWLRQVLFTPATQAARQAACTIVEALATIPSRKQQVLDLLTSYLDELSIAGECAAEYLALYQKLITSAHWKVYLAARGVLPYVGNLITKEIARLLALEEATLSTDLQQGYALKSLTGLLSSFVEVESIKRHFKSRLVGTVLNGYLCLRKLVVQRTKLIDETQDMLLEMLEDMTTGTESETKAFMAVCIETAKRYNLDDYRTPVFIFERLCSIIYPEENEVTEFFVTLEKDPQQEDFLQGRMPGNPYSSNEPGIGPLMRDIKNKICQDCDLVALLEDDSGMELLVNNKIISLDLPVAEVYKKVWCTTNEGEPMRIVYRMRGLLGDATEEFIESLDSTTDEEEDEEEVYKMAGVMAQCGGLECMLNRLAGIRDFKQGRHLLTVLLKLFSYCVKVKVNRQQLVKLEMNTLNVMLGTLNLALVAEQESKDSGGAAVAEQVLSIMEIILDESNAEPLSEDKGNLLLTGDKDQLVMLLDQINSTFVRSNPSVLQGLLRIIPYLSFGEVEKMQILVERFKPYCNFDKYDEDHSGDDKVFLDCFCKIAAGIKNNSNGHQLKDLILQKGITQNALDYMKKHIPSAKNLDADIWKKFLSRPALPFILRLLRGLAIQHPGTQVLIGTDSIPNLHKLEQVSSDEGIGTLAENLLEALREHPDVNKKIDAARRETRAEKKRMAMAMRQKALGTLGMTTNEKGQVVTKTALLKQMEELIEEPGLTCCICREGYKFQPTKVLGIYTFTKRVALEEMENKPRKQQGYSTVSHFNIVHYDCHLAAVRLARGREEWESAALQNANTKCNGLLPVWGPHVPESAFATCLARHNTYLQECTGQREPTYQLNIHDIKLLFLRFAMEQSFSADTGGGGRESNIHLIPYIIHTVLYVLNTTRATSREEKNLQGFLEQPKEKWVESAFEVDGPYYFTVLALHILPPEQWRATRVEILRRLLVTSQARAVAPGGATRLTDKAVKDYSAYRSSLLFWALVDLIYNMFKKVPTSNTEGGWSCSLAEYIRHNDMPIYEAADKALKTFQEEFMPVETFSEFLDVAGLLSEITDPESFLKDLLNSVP
UniProt Q4G0F5: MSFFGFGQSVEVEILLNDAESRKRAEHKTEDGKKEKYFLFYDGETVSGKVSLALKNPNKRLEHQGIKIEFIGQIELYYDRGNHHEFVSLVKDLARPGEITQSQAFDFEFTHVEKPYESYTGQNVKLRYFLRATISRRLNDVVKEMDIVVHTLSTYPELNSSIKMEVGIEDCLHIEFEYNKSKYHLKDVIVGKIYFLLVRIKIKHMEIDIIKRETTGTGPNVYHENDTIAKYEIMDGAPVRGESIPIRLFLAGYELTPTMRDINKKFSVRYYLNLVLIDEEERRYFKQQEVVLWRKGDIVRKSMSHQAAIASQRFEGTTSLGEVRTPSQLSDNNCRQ

| Molecule | binding |
| --- | --- |
| AP-2 subunit alpha-1 (from UniProt O95782 1-977) | binds |
| AP-2 subunit beta (from UniProt P63010 1-937) | binds |
| AP-2 subunit mu (from UniProt Q96CW1 1-435) | binds |
| Clathrin heavy chain 1 (from UniProt Q00610 1-1675) | binds |
| Cortactin (from UniProt Q14247 1-550) | binds |
| EEA1 (printed protein ID: Early endosome) (from UniProt Q15075 1-1411) | binds |
| HUWE1, Ubiquitin ligase (E3) (from UniProt Q7Z6Z7 1-4374) (enzyme) | binds |
| Ras-related protein 5A (from UniProt P20339 1-215) | binds |
| Ras-related protein 5C (from UniProt P51148 1-216) | binds |
| Ras-related protein 8A (from UniProt P61006 1-207) | binds |
| SNX1 (from UniProt Q13596 1-522) | binds |
| STUB1, Ubiquitin ligase (E3) (from UniProt Q9UNE7 1-303) (enzyme) | binds |
| SYVN1, Ubiquitin ligase (E3) (from UniProt Q86TM6 1-617) (enzyme) | binds |
| Scribble (from UniProt Q14160 1-1655) | binds |
| UBE2N, Ubiquitin conjugated enzyme (E2) (from UniProt P61088 1-152) | binds |
| UBR4, Ubiquitin ligase (E3) (from UniProt Q5T4S7 1-5183) (enzyme) | binds |
| Ubiquitin activating enzyme 1 (E1) (from UniProt P22314 1-1058) | binds |
| VPS26a (from UniProt O75436 1-327) | binds |
| VPS26b (from UniProt Q4G0F5 1-336) | binds |
| Ubiquitin activating enzyme 6 (E1) (enzyme, UniProt A0AVT1 1-1052) MEGSEPVAAHQGEEASCSSWGTGSTNKNLPIMSTASVEIDDALYSRQRYVLGDTAMQKMAKSHVFLSGMGGLGLEIAKNLVLAGIKAVTIHDTEKCQAWDLGTNFFLSEDDVVNKRNRAEAVLKHIAELNPYVHVTSSSVPFNETTDLSFLDKYQCVVLTEMKLPLQKKINDFCRSQCPPIKFISADVHGIWSRLFCDFGDEFEVLDTTGEEPKEIFISNITQANPGIVTCLENHPHKLETGQFLTFREINGMTGLNGSIQQITVISPFSFSIGDTTELEPYLHGGIAVQVKTPKTVFFESLERQLKHPKCLIVDFSNPEAPLEIHTAMLALDQFQEKYSRKPNVGCQQDSEELLKLATSISETLEEKPDVNADIVHWLSWTAQGFLSPLAAAVGGVASQEVLKAVTGKFSPLCQWLYLEAADIVESLGKPECEEFLPRGDRYDALRACIGDTLCQKLQNLNIFLVGCGAIGCEMLKNFALLGVGTSKEKGMITVTDPDLIEKSNLNRQFLFRPHHIQKPKSYTAADATLKINSQIKIDAHLNKVCPTTETIYNDEFYTKQDVIITALDNVEARRYVDSRCLANLRPLLDSGTMGTKGHTEVIVPHLTESYNSHRDPPEEEIPFCTLKSFPAAIEHTIQWARDKFESSFSHKPSLFNKFWQTYSSAEEVLQKIQSGHSLEGCFQVIKLLSRRPRNWSQCVELARLKFEKYFNHKALQLLHCFPLDIRLKDGSLFWQSPKRPPSPIKFDLNEPLHLSFLQNAAKLYATVYCIPFAEEDLSADALLNILSEVKIQEFKPSNKVVQTDETARKPDHVPISSEDERNAIFQLEKAILSNEATKSDLQMAVLSFEKDDDHNGHIDFITAASNLRAKMYSIEPADRFKTKRIAGKIIPAIATTTATVSGLVALEMIKVTGGYPFEAYKNCFLNLAIPIVVFTETTEVRKTKIRNGISFTIWDRWTVHGKEDFTLLDFINAVKEKYGIEPTMVVQGVKMLYVPVMPGHAKRLKLTMHKLVKPTTEKKYVDLTVSFAPDIDGDEDLPGPPVRYYFSHDTD | binds |
| Lethal giant larvae 1 (protein, UniProt Q15334 1-1064) MMKFRFRRQGADPQREKLKQELFAFNKTVEHGFPNQPSALAFDPELRIMAIGTRSGAVKIYGAPGVEFTGLHRDAATVTQMHFLTGQGRLLSLLDDSSLHLWEIVHHNGCAHLEEALSFQLPSRPGFDGASAPLSLTRVTVVLLVAASDIAALGTEGSSVFFLDVTTLTLLEGQTLAPGEVLRSVPDDYRCGKALGPVESLQGHLRDPTKILIGYSRGLLVIWNQASQCVDHIFLGNQQLESLCWGRDSSTVVSSHSDGSYAVWSVDAGSFPTLQPTVATTPYGPFPCKAINKILWRNCESGGHFIIFSGGMPRASYGDRHCVSVLRAETLVTLDFTSRIIDFFTVHSTRPEDEFDDPQALAVLLEEELVVLDLQTPGWPAVPAPYLAPLHSSAITCSAHVASVPAKLWARIVSAGEQQSPQPVSSALSWPITGGRNLAQEPSQRGLLLTGHEDGTVRFWDASGVALRPLYKLSTAGLFQTDCEHADSLAQAAEDDWPPFRKVGCFDPYSDDPRLGVQKVALCKYTAQMVVAGTAGQVLVLELSDVPVEQAVSVAIIDLLQDREGFTWKGHERLSPRTGPLPWPAGFQPRVLVQCLPPAAVTAVTLHTEWSLVAFGTSHGFGLFDYQRKSPVLARCTLHPNDSLAMEGPLSRVKSLKKSLRQSFRRIRKSRVSGKKRAANASSKLQEANAQLAEQACPHDVEMTPVQRRIEPRSADDSLSGVVRCLYFADTFLRDGAHHGPTMWAGTNSGSVFAYALEVPAAAVGGEKRPEQAVEAVLGKEVQLMHRAPVVAIAVLDGRGRPLPEPYEASRDLAQAPDMQGGHAVLIASEEQFKVFTLPKVSAKTKFKLTAHEGCRVRKVALATFASVACEDYAETCLACLTNLGDVHVFSVPGLRPQVHYSCIRKEDISGIASCVFTRHGQGFYLISPSEFERFSLSARNITEPLCSLDINWPRDATQASYRIRESPKLSQANGTPSILLAPQSLDGSPDPAHSMGPDTPEPPEAALSPMSIDSATSADTTLDTTGDVTVEDVKDFLGSSEESEKNLRNLAEDEAHACAILIK | binds |
| Clathrin light chain A (protein, UniProt P09496 1-248) MAELDPFGAPAGAPGGPALGNGVAGAGEEDPAAAFLAQQESEIAGIENDEAFAILDGGAPGPQPHGEPPGGPDAVDGVMNGEYYQESNGPTDSYAAISQVDRLQSEPESIRKWREEQMERLEALDANSRKQEAEWKEKAIKELEEWYARQDEQLQKTKANNRVADEAFYKQPFADVIGYVTNINHPCYSLEQAAEEAFVNDIDESSPGTEWERVARLCDFNPKSSKQAKDVSRMRSVLISLKQAPLVH | binds |
| Ras-related protein 5B (protein, UniProt P61020 1-215) MTSRSTARPNGQPQASKICQFKLVLLGESAVGKSSLVLRFVKGQFHEYQESTIGAAFLTQSVCLDDTTVKFEIWDTAGQERYHSLAPMYYRGAQAAIVVYDITNQETFARAKTWVKELQRQASPSIVIALAGNKADLANKRMVEYEEAQAYADDNSLLFMETSAKTAMNVNDLFLAIAKKLPKSEPQNLGGAAGRSRGVDLHEQSQQNKSQCCSN | binds |

Source: article PMC5943355
